# This is one part of the list.
# B1: NanH (Corynebacterium diphtheriae), C6JSW6 (protein)
# chain: MYSSNRTYSRAILGLSAVLTLSFTSLVAPVNAEEPETVVPATAELEGEVAATLPSAETGLLDAAPPKPVARGAAGDLQLPAVNEKEVFEEGRVIRAPEPDQSRCYRIPALVTAKNGDLLLAFDNRYGGGDGAKTWCRDAPYENMKRINRQNMQTDIQLYRSVDNGQSFEDFGYIAQGTADVRELSYTDPALVTDRTTGKIFAFFVRAYDYRVGQSSAGFNEGDVEAEIQKRDVQDTVVVESLDGGQTWGNMRLLSALTAKVSSISTGDTIFDGRGRFVTSGAGIQLQYGEHAGRLIVPISVDIDPKDSAKFINLAIYSDDHGQTWQAGIGTAGGAGFSGDVSKIVELSDGRLMMSSKDNDKPRWVSYSEDQGENWSTPKRKIIAPPQHPEKHNTGINVGLIRAYPNAPENSAAARVLLYSAPIDQRYSHKHTEDGRNNGWVMGSCDDGKTWSFGRQIEKNRFQYSSMTVMSDGNIGMVYESGDFSTGMNLKFAKFNMAWLGADCHSNEALGLTGDIDKEIVEAQEKAAEATKEAQEAAEKVQKLTEELAAARKENDELKNQVKGFKEAVGDLANEAEDLADKVFKLETAVTEAKEKATVAEKAASDAVTQLQKAESIAEEQKAKAESAAAEAQALREKLERLEGSILTVKENPEAEEIADLSSTAKDAADAARRAATDANGALSGQKQDEEKPAMGLMGILKVLAGIIPLVAIIATIFQTFRLPFNIPGMR
# Experiments:
# Test in all cases: glycan array binding signal (z-score within array); higher = stronger binding
# Settings in all cases: glycan notation: IUPAC condensed, linker removed
# [1] = biological target: Fuc(a1-2)[Gal(a1-3)]Gal(b1-4)Glc
# Summary of the method: (§1)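 The Consortium for Functional Glycomics database supplied 3228 glycan arrays, of which those lacking an available protein sequence were dropped. The binding signal, a within-array Z-score, was averaged across arrays of the same protein sequence and across linkers. Negative scores can be read as non-binding.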
# [2] = biological target: Fuc(a1-2)[Gal(a1-3)]Gal(b1-4)GlcNAc
# Summary of the method: as §1
# [3] = biological target: Fuc(a1-2)[Gal(a1-3)]Gal(b1-4)GlcNAc(b1-2)Man(a1-3)[Fuc(a1-2)[Gal(a1-3)]Gal(b1-4)GlcNAc(b1-2)Man(a1-6)]Man(b1-4)GlcNAc(b1-4)GlcNAc
# Summary of the method: as §1
# [4] = biological target: Fuc(a1-2)[Gal(a1-3)]Gal(b1-4)GlcNAc(b1-2)Man(a1-3)[Fuc(a1-2)[Gal(a1-3)]Gal(b1-4)GlcNAc(b1-2)Man(a1-6)]Man(b1-4)GlcNAc(b1-4)[Fuc(a1-6)]GlcNAc
# Summary of the method: as §1
# [5] = biological target: Fuc(a1-2)[Gal(a1-3)]Gal(b1-4)GlcNAc(b1-3)GalNAc
# Summary of the method: as §1
# [6] = biological target: Fuc(a1-2)[Gal(a1-3)]Gal(b1-4)[Fuc(a1-3)]Glc
# Summary of the method: as §1
# [7] = biological target: Fuc(a1-2)[Gal(a1-3)]Gal(b1-4)[Fuc(a1-3)]GlcNAc
# Summary of the method: as §1
# [8] = biological target: Fuc(a1-2)[Gal(a1-3)]Gal(b1-4)[Fuc(a1-3)]GlcNAc(b1-3)GalNAc
# Summary of the method: as §1
# [9] = biological target: Fuc(a1-2)[Gal(a1-4)]Gal(b1-4)GlcNAc
# Summary of the method: as §1
# [10] = biological target: Fuc(a1-2)[GalNAc(a1-3)]Gal
# Summary of the method: as §1
# [11] = biological target: Fuc(a1-2)[GalNAc(a1-3)]Gal(b1-3)GalNAc(a1-3)[Fuc(a1-2)]Gal(b1-4)GlcNAc
# Summary of the method: as §1
# [12] = biological target: Fuc(a1-2)[GalNAc(a1-3)]Gal(b1-3)GlcNAc
# Summary of the method: as §1
# [13] = biological target: Fuc(a1-2)[GalNAc(a1-3)]Gal(b1-3)GlcNAc(b1-2)Man(a1-3)[Fuc(a1-2)[GalNAc(a1-3)]Gal(b1-3)GlcNAc(b1-2)Man(a1-6)]Man(b1-4)GlcNAc(b1-4)GlcNAc
# Summary of the method: as §1
# [14] = biological target: Fuc(a1-2)[GalNAc(a1-3)]Gal(b1-3)GlcNAc(b1-2)Man(a1-3)[Fuc(a1-2)[GalNAc(a1-3)]Gal(b1-3)GlcNAc(b1-2)Man(a1-6)]Man(b1-4)GlcNAc(b1-4)[Fuc(a1-6)]GlcNAc
# Summary of the method: as §1
# [15] = biological target: Fuc(a1-2)[GalNAc(a1-3)]Gal(b1-3)GlcNAc(b1-3)GalNAc
# Summary of the method: as §1
# [16] = biological target: Fuc(a1-2)[GalNAc(a1-3)]Gal(b1-4)Glc
# Summary of the method: as §1
# [17] = biological target: Fuc(a1-2)[GalNAc(a1-3)]Gal(b1-4)GlcNAc
# Summary of the method: as §1
# [18] = biological target: Fuc(a1-2)[GalNAc(a1-3)]Gal(b1-4)GlcNAc(b1-2)Man(a1-3)[Fuc(a1-2)[GalNAc(a1-3)]Gal(b1-4)GlcNAc(b1-2)Man(a1-6)]Man(b1-4)GlcNAc(b1-4)GlcNAc
# Summary of the method: as §1
# [19] = biological target: Fuc(a1-2)[GalNAc(a1-3)]Gal(b1-4)GlcNAc(b1-2)Man(a1-3)[Fuc(a1-2)[GalNAc(a1-3)]Gal(b1-4)GlcNAc(b1-2)Man(a1-6)]Man(b1-4)GlcNAc(b1-4)[Fuc(a1-6)]GlcNAc
# Summary of the method: as §1
# [20] = biological target: Fuc(a1-2)[GalNAc(a1-3)]Gal(b1-4)GlcNAc(b1-3)Gal(b1-4)GlcNAc
# Summary of the method: as §1
# [21] = biological target: Fuc(a1-2)[GalNAc(a1-3)]Gal(b1-4)GlcNAc(b1-3)Gal(b1-4)GlcNAc(b1-3)Gal(b1-4)GlcNAc
# Summary of the method: as §1
# [22] = biological target: Fuc(a1-2)[GalNAc(a1-3)]Gal(b1-4)GlcNAc(b1-3)GalNAc
# Summary of the method: as §1
# [23] = biological target: Fuc(a1-2)[GalNAc(a1-3)]Gal(b1-4)[Fuc(a1-3)]GlcNAc
# Summary of the method: as §1
# [24] = biological target: Fuc(a1-2)[GalNAc(a1-3)]Gal(b1-4)[Fuc(a1-3)]GlcNAc(b1-3)GalNAc
# Summary of the method: as §1
# [25] = biological target: Fuc(a1-2)[GalNAc(a1-4)]Gal(b1-4)GlcNAc
# Summary of the method: as §1
# [26] = biological target: Fuc(a1-2)[GalNAc(b1-3)]Gal
# Summary of the method: as §1
# Fuc(a1-3)GlcNAc = biological target: Fuc(a1-3)GlcNAc
# Summary of the method: as §1
# [27] = biological target: Fuc(a1-3)[Gal(b1-4)]Glc6S
# Summary of the method: as §1
# [28] = biological target: Fuc(a1-3)[Gal(b1-4)]GlcNAc
# Summary of the method: as §1
# [29] = biological target: Fuc(a1-3)[Gal(b1-4)]GlcNAc(b1-2)Man(a1-3)[Fuc(a1-3)[Gal(b1-4)]GlcNAc(b1-2)Man(a1-6)]Man(b1-4)GlcNAc(b1-4)GlcNAc
# Summary of the method: as §1
# [30] = biological target: Fuc(a1-3)[Gal(b1-4)]GlcNAc(b1-2)Man(a1-3)[Fuc(a1-3)[Gal(b1-4)]GlcNAc(b1-2)Man(a1-6)]Man(b1-4)GlcNAc(b1-4)[Fuc(a1-6)]GlcNAc
# Summary of the method: as §1
# [31] = biological target: Fuc(a1-3)[Gal(b1-4)]GlcNAc(b1-3)Gal(b1-3)[Fuc(a1-4)]GlcNAc
# Summary of the method: as §1
# [32] = biological target: Fuc(a1-3)[Gal(b1-4)]GlcNAc(b1-3)GalNAc
# Summary of the method: as §1
# [33] = biological target: Fuc(a1-3)[Gal(b1-4)]GlcNAc(b1-4)Gal(b1-4)[Fuc(a1-3)]GlcNAc
# Summary of the method: as §1
# [34] = biological target: Fuc(a1-3)[Gal(b1-4)]GlcNAc(b1-4)Gal(b1-4)[Fuc(a1-3)]GlcNAc(b1-4)Gal(b1-4)[Fuc(a1-3)]GlcNAc
# Summary of the method: as §1
# [35] = biological target: Fuc(a1-3)[Gal(b1-4)]GlcNAc(b1-6)GalNAc
# Summary of the method: as §1
# [36] = biological target: Fuc(a1-3)[Gal(b1-4)]GlcNAc(b1-6)[Gal(b1-3)GlcNAc(b1-3)]Gal(b1-4)Glc
# Summary of the method: as §1
# [37] = biological target: Fuc(a1-3)[Gal(b1-4)]GlcNAc(b1-6)[Neu5Ac(a2-3)Gal(b1-3)]GalNAc
# Summary of the method: as §1
# [38] = biological target: Fuc(a1-3)[Gal(b1-4)]GlcNAc6S
# Summary of the method: as §1
# [39] = biological target: Fuc(a1-3)[Gal3S(b1-4)]GlcNAc
# Summary of the method: as §1
# [40] = biological target: Fuc(a1-3)[Gal3S(b1-4)]GlcNAc6S
# Summary of the method: as §1
# [41] = biological target: Fuc(a1-3)[GalNAc(b1-4)]GlcNAc
# Summary of the method: as §1
# Fuc(a1-4)GlcNAc = biological target: Fuc(a1-4)GlcNAc
# Summary of the method: as §1
# Fuc(b1-3)GlcNAc = biological target: Fuc(b1-3)GlcNAc
# Summary of the method: as §1
# Gal(a1-2)Gal = biological target: Gal(a1-2)Gal
# Summary of the method: as §1
binder,measurement,setting,value
B1,glycan array binding signal (z-score),[1],-0.381
same,glycan array binding signal (z-score),[2],-1.05
same,glycan array binding signal (z-score),[3],0.948
same,glycan array binding signal (z-score),[4],0.176
same,glycan array binding signal (z-score),[5],-1.18
same,glycan array binding signal (z-score),[6],0.259
same,glycan array binding signal (z-score),[7],0.379
same,glycan array binding signal (z-score),[8],-0.377
same,glycan array binding signal (z-score),[9],0.211
same,glycan array binding signal (z-score),[10],-1.21
same,glycan array binding signal (z-score),[11],-0.631
same,glycan array binding signal (z-score),[12],0.578
same,glycan array binding signal (z-score),[13],-0.95
same,glycan array binding signal (z-score),[14],0.495
same,glycan array binding signal (z-score),[15],1.12
same,glycan array binding signal (z-score),[16],-0.096
same,glycan array binding signal (z-score),[17],0.823
same,glycan array binding signal (z-score),[18],-0.426
same,glycan array binding signal (z-score),[19],-0.586
same,glycan array binding signal (z-score),[20],0.149
same,glycan array binding signal (z-score),[21],0.612
same,glycan array binding signal (z-score),[22],-0.487
same,glycan array binding signal (z-score),[23],0.94
same,glycan array binding signal (z-score),[24],1.55
same,glycan array binding signal (z-score),[25],-0.114
same,glycan array binding signal (z-score),[26],-1.52
same,glycan array binding signal (z-score),Fuc(a1-3)GlcNAc,-0.067
same,glycan array binding signal (z-score),[27],-0.325
same,glycan array binding signal (z-score),[28],-0.243
same,glycan array binding signal (z-score),[29],-2.07
same,glycan array binding signal (z-score),[30],-0.264
same,glycan array binding signal (z-score),[31],-0.443
same,glycan array binding signal (z-score),[32],-0.067
same,glycan array binding signal (z-score),[33],0.083
same,glycan array binding signal (z-score),[34],-1.15
same,glycan array binding signal (z-score),[35],2.36
same,glycan array binding signal (z-score),[36],-0.136
same,glycan array binding signal (z-score),[37],0.377
same,glycan array binding signal (z-score),[38],-0.376
same,glycan array binding signal (z-score),[39],-0.688
same,glycan array binding signal (z-score),[40],-0.936
same,glycan array binding signal (z-score),[41],-0.575
same,glycan array binding signal (z-score),Fuc(a1-4)GlcNAc,0.273
same,glycan array binding signal (z-score),Fuc(b1-3)GlcNAc,-0.108
same,glycan array binding signal (z-score),Gal(a1-2)Gal,-1.72

# Three successive entries already listed, for reference:
binder,measurement,setting,value
B1,glycan array binding signal (z-score),[30],-0.264
same,glycan array binding signal (z-score),[31],-0.443
same,glycan array binding signal (z-score),[32],-0.067

# — the supplement of paper PMC8728848
